Measured values as given in publication PMC7516004, “RICE CENTRORADIALIS 1, a TFL1-like Gene, Responses to Drought Stress and Regulates Rice Flowering Transition”.
Construct, isoform or probe ends are uncertain for at least one entry. Weaker means in comparison with the reference protein, sequence or condition of that experiment. Tags and fusion partners may be left off the protein sequences shown.

These sequences were tested against T1, OSBZ8 (UniProt Q40645) (assay: EMSA). Settings: Chemiluminescent Nucleic Acid Detection Module Kit (Thermo) per manufacturer; binding buffer, pH and temperature not stated; recombinant protein; protein details: His (pCold vector); label: biotin.
T1 sequence (looked up, limits assumed): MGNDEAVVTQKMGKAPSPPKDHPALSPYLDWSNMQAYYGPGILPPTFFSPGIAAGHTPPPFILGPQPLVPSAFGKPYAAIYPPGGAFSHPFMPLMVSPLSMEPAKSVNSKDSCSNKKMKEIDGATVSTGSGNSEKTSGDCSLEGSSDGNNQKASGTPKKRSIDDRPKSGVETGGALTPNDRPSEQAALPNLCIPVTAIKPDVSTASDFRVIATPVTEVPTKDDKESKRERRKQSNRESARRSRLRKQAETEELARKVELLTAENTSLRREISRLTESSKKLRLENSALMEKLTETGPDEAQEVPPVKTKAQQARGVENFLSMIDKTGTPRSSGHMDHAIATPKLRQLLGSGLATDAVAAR

Binding result, binds more weakly:
AATAAAAATGGTGGGACCCACGTGGGCCCCACAAGTCATTCT (double strand) [Probe 11]
AGGAAAAATGGTGGGACCCACGTGGGCCCCACATGTCATCCT (double strand) [Probe 14]
AGTCAAATTAGCCACGTAGGCGACACGTCAGCTAAAACCGC (double strand) [Probe 12]
TCTTCATCTGACGTGGCATTGATGTGGTGCTTACGTGGCACTTCGA (double strand) [Probe 10]
TGTGGTTTTGGCTGACGTGGCGCCTACGTGGCGAATTTGACTC (double strand) [Probe 9]
